# Data taken from the supplement of paper PMC4604168 (melanoma cell lines).
# The other results are listed elsewhere or left out. Repeats are few or missing, and single values can be far off.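 Imaging used 1,536-well plates; nuclei positive for cleaved PARP by antibody were divided by total DNA-stained nuclei to yield the apoptosis fraction. Doses for screening kept most cells viable, and cell lines differ markedly in resting and induced cleaved-PARP levels.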
# Legend:
# Experiment in all cases: cleaved PARP positive nuclei fraction relative to DMSO control; melanoma cells; higher = more apoptosis
# Settings in all cases: library dose: low library concentration; 72 h
# [1] = tested on: 501Mel
# [2] = tested on: A101D
# [3] = tested on: A2058
# [4] = tested on: C32
# [5] = tested on: CBRC008 (line from a melanoma biopsy)
# [6] = tested on: CBRC014 (line from a melanoma biopsy)
# [7] = tested on: CBRC016 (line from a melanoma biopsy)
# [8] = tested on: CBRC017 (line from a melanoma biopsy)
# [9] = tested on: COLO792
# [10] = tested on: COLO800
# [11] = tested on: COLO829
# [12] = tested on: G361
# [13] = tested on: IPC-298
# [14] = tested on: IST-MEL1
# [15] = tested on: LB2518-MEL
# [16] = tested on: LOXIMVI
Compound,cleaved PARP positive nuclei fraction [1],cleaved PARP positive nuclei fraction [2],cleaved PARP positive nuclei fraction [3],cleaved PARP positive nuclei fraction [4],cleaved PARP positive nuclei fraction [5],cleaved PARP positive nuclei fraction [6],cleaved PARP positive nuclei fraction [7],cleaved PARP positive nuclei fraction [8],cleaved PARP positive nuclei fraction [9],cleaved PARP positive nuclei fraction [10],cleaved PARP positive nuclei fraction [11],cleaved PARP positive nuclei fraction [12],cleaved PARP positive nuclei fraction [13],cleaved PARP positive nuclei fraction [14],cleaved PARP positive nuclei fraction [15],cleaved PARP positive nuclei fraction [16]
"C[C@]1(O)C[C@@H](c2nc(-c3ccc4ccc(-c5ccccc5)nc4c3)c3c(N)nccn32)C1 + COC(=O)c1sccc1S(=O)(=O)Nc1ccc(Nc2ccccc2)cc1OC [GSK0660] (first compound 0.4 µM, partner dose 1 µM)",65.1%,87.1%,73.2%,32.6%,207%,83.8%,62.3%,95.7%,171%,80.2%,143%,41.5%,96.6%,85.6%,67.8%,70.9%
"NC1(c2ccc(-c3nc4ccn5c(=O)[nH]nc5c4cc3-c3ccccc3)cc2)CCC1 + O=C1NC(=O)/C(=C/c2ccc(-c3ccc(F)cc3O)o2)S1 [AS252424] (first compound 0.4 µM, partner dose 1 µM)",26.3%,15.9%,150%,94.8%,142%,119%,73.4%,81%,165%,45.3%,102%,106%,24.2%,112%,60.3%,90.2%
"CC1(C)CCC(c2ccc(Cl)cc2)=C(CN2CCN(c3ccc(C(=O)NS(=O)(=O)c4ccc(N[C@H](CCN5CCOCC5)CSc5ccccc5)c(S(=O)(=O)C(F)(F)F)c4)cc3)CC2)C1 + Oc1nc(-c2ccc(C(F)(F)F)cc2)nc2c1CSCC2 [XAV939] (first compound 0.4 µM, partner dose 2 µM)",29.6%,32.2%,90.3%,161%,389%,581%,230%,443%,591%,103%,87.5%,252%,145%,119%,92.5%,89.2%
"CC1(C)CCC(c2ccc(Cl)cc2)=C(CN2CCN(c3ccc(C(=O)NS(=O)(=O)c4ccc(N[C@H](CCN5CCOCC5)CSc5ccccc5)c(S(=O)(=O)C(F)(F)F)c4)cc3)CC2)C1 + CCCCCCCCCCCC1=C(O)C(=O)C=C(O)C1=O [Embelin] (first compound 0.4 µM, partner dose 1.2 µM)",74.2%,116%,261%,1130%,184%,890%,518%,310%,420%,137%,26.3%,150%,230%,71.1%,155%,215%
"NC1(c2ccc(-c3nc4ccn5c(=O)[nH]nc5c4cc3-c3ccccc3)cc2)CCC1 + O=S(=O)(c1ccccc1)N(CC(F)(F)F)c1ccc(C(O)(C(F)(F)F)C(F)(F)F)cc1 [T0901317] (first compound 0.4 µM, partner dose 1.4 µM)",26.8%,24.8%,58.2%,26.9%,150%,98.7%,67%,98.9%,225%,134%,96.2%,151%,102%,172%,74%,104%
"CN(c1ncccc1CNc1nc(Nc2ccc3c(c2)CC(=O)N3)ncc1C(F)(F)F)S(C)(=O)=O + CCCCCCCCCCCC1=C(O)C(=O)C=C(O)C1=O [Embelin] (first compound 0.08 µM, partner dose 1.2 µM)",76.3%,27.7%,68.8%,76.2%,42.3%,81.2%,49.5%,90.3%,103%,148%,87.8%,109%,50%,94.5%,129%,65.8%
"NC(=O)c1ccc(N(C(N)=O)c2c(F)cccc2F)nc1-c1ccc(F)cc1F + CCN(CC)CCCCNc1ncc2cc(-c3cc(OC)cc(OC)c3)c(NC(=O)NC(C)(C)C)nc2n1 [PD173074] (first compound 0.4 µM, partner dose 0.1 µM)",54.3%,11.4%,29.2%,115%,80.9%,82.3%,11.5%,162%,131%,75.8%,80.2%,80%,82.9%,77%,167%,160%
"C[C@@H](N)c1ccc(C(=O)Nc2ccnc3[nH]ccc23)cc1 + Cc1cc([N+](=O)[O-])ccc1NS(=O)(=O)c1cc(Cl)ccc1Cl [FH535] (first compound 0.4 µM, partner dose 1 µM)",66.1%,41.9%,115%,166%,558%,217%,2550%,592%,108%,88%,49.5%,112%,150%,194%,74.1%,125%
"CC(=O)O[C@@]12CO[C@@H]1C[C@H](O)[C@@]1(C)C(=O)[C@H](O)C3=C(C)[C@@H](OC(=O)[C@H](O)[C@@H](NC(=O)OC(C)(C)C)c4ccccc4)C[C@@](O)([C@@H](OC(=O)c4ccccc4)[C@H]21)C3(C)C [Docetaxel] + O=c1cc(-c2cccc3c2Sc2ccccc2S3)oc(N2CCOCC2)c1 [KU55933] (first compound 0.0001 µM, partner dose 1 µM)",338%,68.9%,18100%,52.3%,314%,165%,144%,137%,578%,249%,148%,569%,76.5%,113%,200%,26.9%
"C[C@]1(O)C[C@@H](c2nc(-c3ccc4ccc(-c5ccccc5)nc4c3)c3c(N)nccn32)C1 + COc1ccc2c(c1)CCC1C2CCC2(C)C(NCCCCCCN3C(=O)C=CC3=O)CCC12 [U73122] (first compound 0.4 µM, partner dose 0.4 µM)",81.1%,25%,95.7%,40%,160%,278%,88.2%,120%,122%,131%,60%,122%,32.7%,182%,115%,257%
"CCCCCCCCc1ccc(CCC(N)(CO)CO)cc1 [fingolimod] + O=C1NC(=O)/C(=C/c2ccc(-c3ccc(F)cc3O)o2)S1 [AS252424] (first compound 2 µM, partner dose 1 µM)",113%,14.9%,356%,82.3%,57.6%,106%,39%,99.1%,97.3%,147%,61.1%,55.3%,136%,104%,80.7%,34.5%
"NC1(c2ccc(-c3nc4ccn5c(=O)[nH]nc5c4cc3-c3ccccc3)cc2)CCC1 + CCCCCCCCCCCC1=C(O)C(=O)C=C(O)C1=O [Embelin] (first compound 0.4 µM, partner dose 1.2 µM)",142%,13.6%,200%,196%,92.5%,88.2%,38.9%,85.2%,190%,222%,63.7%,128%,92%,114%,144%,149%
"NC(=O)c1ccc(N(C(N)=O)c2c(F)cccc2F)nc1-c1ccc(F)cc1F + COc1ccc(-c2ccc3c(N4CCOCC4)nc(N4C[C@@H](C)O[C@@H](C)C4)nc3n2)cc1CO [KU0063794] (first compound 0.4 µM, partner dose 0.02 µM)",231%,26.8%,131%,41.5%,64.3%,89%,37.6%,116%,46.3%,96%,56.6%,84.5%,94.4%,126%,76.6%,74.6%
"CCN(CC)CCNC(=O)c1c(C)[nH]c(/C=C2\C(=O)Nc3ccc(F)cc32)c1C [sunitinib] + CCCCCCCCCCCC1=C(O)C(=O)C=C(O)C1=O [Embelin] (first compound 0.4 µM, partner dose 1.2 µM)",83.9%,49.6%,281%,84.1%,78.8%,82%,22.4%,72.7%,66.1%,90.4%,38.8%,63.1%,141%,88.3%,29.3%,194%
"NC(=O)c1ccc(N(C(N)=O)c2c(F)cccc2F)nc1-c1ccc(F)cc1F + COC(=O)c1sccc1S(=O)(=O)Nc1ccc(Nc2ccccc2)cc1OC [GSK0660] (first compound 0.4 µM, partner dose 1 µM)",64.2%,45.9%,67.4%,143%,120%,107%,82.2%,101%,78.7%,21.2%,86.7%,98%,181%,74.5%,66.9%,105%
"CC1(C)CCC(c2ccc(Cl)cc2)=C(CN2CCN(c3ccc(C(=O)NS(=O)(=O)c4ccc(N[C@H](CCN5CCOCC5)CSc5ccccc5)c(S(=O)(=O)C(F)(F)F)c4)cc3)CC2)C1 + O=c1cc(-c2cccc3c2Sc2ccccc2S3)oc(N2CCOCC2)c1 [KU55933] (first compound 0.4 µM, partner dose 1 µM)",35.8%,45.5%,123%,105%,462%,371%,211%,294%,446%,226%,101%,170%,63%,104%,64.8%,53.5%
"C[C@@H](N)c1ccc(C(=O)Nc2ccnc3[nH]ccc23)cc1 + N#Cc1c(O)c2c(-c3ccc(-c4ccccc4O)cc3)csc2[nH]c1=O [A769662] (first compound 0.4 µM, partner dose 2 µM)",53.4%,22.6%,62%,69%,49%,216%,193%,98%,123%,129%,143%,116%,170%,157%,84.5%,160%
"CCCCCCCCc1ccc(CCC(N)(CO)CO)cc1 [fingolimod] + COC(=O)c1sccc1S(=O)(=O)Nc1ccc(Nc2ccccc2)cc1OC [GSK0660] (first compound 2 µM, partner dose 1 µM)",168%,67.1%,155%,30.7%,151%,66.7%,27.1%,86%,124%,90.3%,85.1%,100%,32.6%,27.4%,31.2%,107%
"C[C@@H](N)c1ccc(C(=O)Nc2ccnc3[nH]ccc23)cc1 + COc1ccc2c(c1)CCC1C2CCC2(C)C(NCCCCCCN3C(=O)C=CC3=O)CCC12 [U73122] (first compound 0.4 µM, partner dose 0.4 µM)",256%,46.3%,181%,44.1%,126%,179%,114%,233%,141%,96.1%,82.2%,135%,283%,251%,121%,214%

# Quoted from above (two entries):
Compound,cleaved PARP positive nuclei fraction [1],cleaved PARP positive nuclei fraction [2],cleaved PARP positive nuclei fraction [3],cleaved PARP positive nuclei fraction [4],cleaved PARP positive nuclei fraction [5],cleaved PARP positive nuclei fraction [6],cleaved PARP positive nuclei fraction [7],cleaved PARP positive nuclei fraction [8],cleaved PARP positive nuclei fraction [9],cleaved PARP positive nuclei fraction [10],cleaved PARP positive nuclei fraction [11],cleaved PARP positive nuclei fraction [12],cleaved PARP positive nuclei fraction [13],cleaved PARP positive nuclei fraction [14],cleaved PARP positive nuclei fraction [15],cleaved PARP positive nuclei fraction [16]
"CC1(C)CCC(c2ccc(Cl)cc2)=C(CN2CCN(c3ccc(C(=O)NS(=O)(=O)c4ccc(N[C@H](CCN5CCOCC5)CSc5ccccc5)c(S(=O)(=O)C(F)(F)F)c4)cc3)CC2)C1 + O=c1cc(-c2cccc3c2Sc2ccccc2S3)oc(N2CCOCC2)c1 [KU55933] (first compound 0.4 µM, partner dose 1 µM)",35.8%,45.5%,123%,105%,462%,371%,211%,294%,446%,226%,101%,170%,63%,104%,64.8%,53.5%
"C[C@@H](N)c1ccc(C(=O)Nc2ccnc3[nH]ccc23)cc1 + N#Cc1c(O)c2c(-c3ccc(-c4ccccc4O)cc3)csc2[nH]c1=O [A769662] (first compound 0.4 µM, partner dose 2 µM)",53.4%,22.6%,62%,69%,49%,216%,193%,98%,123%,129%,143%,116%,170%,157%,84.5%,160%
